Assay results reported in US20120135880A1.
Results are given in words; binding and its absence hold for the method and conditions named. Some results given as binding are weak or reduced against the parent protein; the word gives no strength.

Protein sequences, listed by entry. Tags and fused reporters are not part of them. Lines headed by an entry give the natural chain unless they say otherwise; changes in a name come on top.
UniProt Q9HCN6: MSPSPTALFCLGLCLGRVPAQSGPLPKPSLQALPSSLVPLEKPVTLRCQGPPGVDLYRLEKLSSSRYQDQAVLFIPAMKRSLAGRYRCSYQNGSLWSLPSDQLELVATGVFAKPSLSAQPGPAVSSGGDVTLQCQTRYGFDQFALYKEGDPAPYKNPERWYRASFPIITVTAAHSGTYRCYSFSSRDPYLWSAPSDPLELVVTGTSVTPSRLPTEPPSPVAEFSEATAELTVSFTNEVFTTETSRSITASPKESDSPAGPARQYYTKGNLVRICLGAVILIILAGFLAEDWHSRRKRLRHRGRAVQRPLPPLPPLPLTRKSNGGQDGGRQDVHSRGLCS

How the values were obtained:
[1] = biological target: T1, collagen-related peptide (CRP), non-crosslinked (POG)10 triple helix; assay: sedimentation velocity AUC size distributions, legend of FIG. 3B
T1 sequence (peptide, O is hydroxyproline (second residue of every POG triplet)): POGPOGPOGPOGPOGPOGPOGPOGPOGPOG

[2] = biological target: collagen-binding domain (CBD) of human glycoprotein VI (GPVI), residues Q1-T183, recombinant, refolded from E. coli inclusion bodies (human) (UniProt Q9HCN6); assay: analytical ultracentrifugation (self-association of the GPVI CBD); in solution, analytical ultracentrifugation, up to 100 µM; construct lacks the stalk region
[3] = biological target: T1, collagen-related peptide (CRP), non-crosslinked (POG)10 triple helix; assay: sedimentation velocity and equilibrium AUC of 1:1, 4:1 and 8:1 GPVI:CRP mixtures; 1:1 complex in the first sample, higher-order complexes in the others; two or three GPVI molecules per CRP triple helix (data not shown)
[4] = biological target: T1, collagen-related peptide (CRP), non-crosslinked (POG)10 triple helix; assay: sedimentation velocity analytical ultracentrifugation; 1:1, 4:1 and 8:1 GPVI:CRP mixtures (10, 40, 80 µM GPVI; the text gives 10 µM CRP for the parallel sedimentation equilibrium mixtures), with GPVI alone and the 1:1 complex of panel A for comparison

collagen-binding domain (CBD) of human glycoprotein VI (GPVI), residues Q1-T183, recombinant, refolded from E. coli inclusion bodies (from UniProt Q9HCN6 21-203) (receptor)
binding [1]: binds
binding [2]: no binding (tested: 100 µM)
binding [3]: binds
binding [4]: binds
